Data: publication PMC12407772
Results are given in words; binding and its absence hold for the method and conditions named. Binding seen in cells or lysates may run through a third protein. These calls come from enrichment with a bait or labelling near it, and not all partners need be listed.

By UniProt entry, the sequences of proteins in these tests, tags left out.
UniProt Q92973: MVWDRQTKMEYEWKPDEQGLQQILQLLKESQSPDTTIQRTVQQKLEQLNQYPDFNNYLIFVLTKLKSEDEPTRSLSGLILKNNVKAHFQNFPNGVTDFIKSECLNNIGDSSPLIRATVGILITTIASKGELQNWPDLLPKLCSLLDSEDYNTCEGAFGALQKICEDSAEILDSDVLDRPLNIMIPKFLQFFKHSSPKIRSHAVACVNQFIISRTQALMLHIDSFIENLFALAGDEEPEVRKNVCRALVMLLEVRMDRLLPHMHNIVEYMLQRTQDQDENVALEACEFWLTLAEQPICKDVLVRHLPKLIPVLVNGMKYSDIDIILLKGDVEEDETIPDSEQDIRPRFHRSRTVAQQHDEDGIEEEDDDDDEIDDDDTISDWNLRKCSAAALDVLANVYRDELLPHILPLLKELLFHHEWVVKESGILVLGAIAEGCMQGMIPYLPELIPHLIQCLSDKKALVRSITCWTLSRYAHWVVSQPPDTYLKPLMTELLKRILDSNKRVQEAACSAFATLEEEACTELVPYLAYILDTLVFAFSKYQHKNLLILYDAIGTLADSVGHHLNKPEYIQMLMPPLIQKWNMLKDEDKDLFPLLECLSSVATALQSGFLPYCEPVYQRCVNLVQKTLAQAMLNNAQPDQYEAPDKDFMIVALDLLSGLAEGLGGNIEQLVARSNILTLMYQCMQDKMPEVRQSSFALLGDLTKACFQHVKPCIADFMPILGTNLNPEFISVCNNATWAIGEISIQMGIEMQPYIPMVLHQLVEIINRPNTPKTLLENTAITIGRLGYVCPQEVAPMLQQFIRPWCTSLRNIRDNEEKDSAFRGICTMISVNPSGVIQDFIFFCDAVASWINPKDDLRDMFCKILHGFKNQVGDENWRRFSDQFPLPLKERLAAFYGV
UniProt Q7Z6Z7: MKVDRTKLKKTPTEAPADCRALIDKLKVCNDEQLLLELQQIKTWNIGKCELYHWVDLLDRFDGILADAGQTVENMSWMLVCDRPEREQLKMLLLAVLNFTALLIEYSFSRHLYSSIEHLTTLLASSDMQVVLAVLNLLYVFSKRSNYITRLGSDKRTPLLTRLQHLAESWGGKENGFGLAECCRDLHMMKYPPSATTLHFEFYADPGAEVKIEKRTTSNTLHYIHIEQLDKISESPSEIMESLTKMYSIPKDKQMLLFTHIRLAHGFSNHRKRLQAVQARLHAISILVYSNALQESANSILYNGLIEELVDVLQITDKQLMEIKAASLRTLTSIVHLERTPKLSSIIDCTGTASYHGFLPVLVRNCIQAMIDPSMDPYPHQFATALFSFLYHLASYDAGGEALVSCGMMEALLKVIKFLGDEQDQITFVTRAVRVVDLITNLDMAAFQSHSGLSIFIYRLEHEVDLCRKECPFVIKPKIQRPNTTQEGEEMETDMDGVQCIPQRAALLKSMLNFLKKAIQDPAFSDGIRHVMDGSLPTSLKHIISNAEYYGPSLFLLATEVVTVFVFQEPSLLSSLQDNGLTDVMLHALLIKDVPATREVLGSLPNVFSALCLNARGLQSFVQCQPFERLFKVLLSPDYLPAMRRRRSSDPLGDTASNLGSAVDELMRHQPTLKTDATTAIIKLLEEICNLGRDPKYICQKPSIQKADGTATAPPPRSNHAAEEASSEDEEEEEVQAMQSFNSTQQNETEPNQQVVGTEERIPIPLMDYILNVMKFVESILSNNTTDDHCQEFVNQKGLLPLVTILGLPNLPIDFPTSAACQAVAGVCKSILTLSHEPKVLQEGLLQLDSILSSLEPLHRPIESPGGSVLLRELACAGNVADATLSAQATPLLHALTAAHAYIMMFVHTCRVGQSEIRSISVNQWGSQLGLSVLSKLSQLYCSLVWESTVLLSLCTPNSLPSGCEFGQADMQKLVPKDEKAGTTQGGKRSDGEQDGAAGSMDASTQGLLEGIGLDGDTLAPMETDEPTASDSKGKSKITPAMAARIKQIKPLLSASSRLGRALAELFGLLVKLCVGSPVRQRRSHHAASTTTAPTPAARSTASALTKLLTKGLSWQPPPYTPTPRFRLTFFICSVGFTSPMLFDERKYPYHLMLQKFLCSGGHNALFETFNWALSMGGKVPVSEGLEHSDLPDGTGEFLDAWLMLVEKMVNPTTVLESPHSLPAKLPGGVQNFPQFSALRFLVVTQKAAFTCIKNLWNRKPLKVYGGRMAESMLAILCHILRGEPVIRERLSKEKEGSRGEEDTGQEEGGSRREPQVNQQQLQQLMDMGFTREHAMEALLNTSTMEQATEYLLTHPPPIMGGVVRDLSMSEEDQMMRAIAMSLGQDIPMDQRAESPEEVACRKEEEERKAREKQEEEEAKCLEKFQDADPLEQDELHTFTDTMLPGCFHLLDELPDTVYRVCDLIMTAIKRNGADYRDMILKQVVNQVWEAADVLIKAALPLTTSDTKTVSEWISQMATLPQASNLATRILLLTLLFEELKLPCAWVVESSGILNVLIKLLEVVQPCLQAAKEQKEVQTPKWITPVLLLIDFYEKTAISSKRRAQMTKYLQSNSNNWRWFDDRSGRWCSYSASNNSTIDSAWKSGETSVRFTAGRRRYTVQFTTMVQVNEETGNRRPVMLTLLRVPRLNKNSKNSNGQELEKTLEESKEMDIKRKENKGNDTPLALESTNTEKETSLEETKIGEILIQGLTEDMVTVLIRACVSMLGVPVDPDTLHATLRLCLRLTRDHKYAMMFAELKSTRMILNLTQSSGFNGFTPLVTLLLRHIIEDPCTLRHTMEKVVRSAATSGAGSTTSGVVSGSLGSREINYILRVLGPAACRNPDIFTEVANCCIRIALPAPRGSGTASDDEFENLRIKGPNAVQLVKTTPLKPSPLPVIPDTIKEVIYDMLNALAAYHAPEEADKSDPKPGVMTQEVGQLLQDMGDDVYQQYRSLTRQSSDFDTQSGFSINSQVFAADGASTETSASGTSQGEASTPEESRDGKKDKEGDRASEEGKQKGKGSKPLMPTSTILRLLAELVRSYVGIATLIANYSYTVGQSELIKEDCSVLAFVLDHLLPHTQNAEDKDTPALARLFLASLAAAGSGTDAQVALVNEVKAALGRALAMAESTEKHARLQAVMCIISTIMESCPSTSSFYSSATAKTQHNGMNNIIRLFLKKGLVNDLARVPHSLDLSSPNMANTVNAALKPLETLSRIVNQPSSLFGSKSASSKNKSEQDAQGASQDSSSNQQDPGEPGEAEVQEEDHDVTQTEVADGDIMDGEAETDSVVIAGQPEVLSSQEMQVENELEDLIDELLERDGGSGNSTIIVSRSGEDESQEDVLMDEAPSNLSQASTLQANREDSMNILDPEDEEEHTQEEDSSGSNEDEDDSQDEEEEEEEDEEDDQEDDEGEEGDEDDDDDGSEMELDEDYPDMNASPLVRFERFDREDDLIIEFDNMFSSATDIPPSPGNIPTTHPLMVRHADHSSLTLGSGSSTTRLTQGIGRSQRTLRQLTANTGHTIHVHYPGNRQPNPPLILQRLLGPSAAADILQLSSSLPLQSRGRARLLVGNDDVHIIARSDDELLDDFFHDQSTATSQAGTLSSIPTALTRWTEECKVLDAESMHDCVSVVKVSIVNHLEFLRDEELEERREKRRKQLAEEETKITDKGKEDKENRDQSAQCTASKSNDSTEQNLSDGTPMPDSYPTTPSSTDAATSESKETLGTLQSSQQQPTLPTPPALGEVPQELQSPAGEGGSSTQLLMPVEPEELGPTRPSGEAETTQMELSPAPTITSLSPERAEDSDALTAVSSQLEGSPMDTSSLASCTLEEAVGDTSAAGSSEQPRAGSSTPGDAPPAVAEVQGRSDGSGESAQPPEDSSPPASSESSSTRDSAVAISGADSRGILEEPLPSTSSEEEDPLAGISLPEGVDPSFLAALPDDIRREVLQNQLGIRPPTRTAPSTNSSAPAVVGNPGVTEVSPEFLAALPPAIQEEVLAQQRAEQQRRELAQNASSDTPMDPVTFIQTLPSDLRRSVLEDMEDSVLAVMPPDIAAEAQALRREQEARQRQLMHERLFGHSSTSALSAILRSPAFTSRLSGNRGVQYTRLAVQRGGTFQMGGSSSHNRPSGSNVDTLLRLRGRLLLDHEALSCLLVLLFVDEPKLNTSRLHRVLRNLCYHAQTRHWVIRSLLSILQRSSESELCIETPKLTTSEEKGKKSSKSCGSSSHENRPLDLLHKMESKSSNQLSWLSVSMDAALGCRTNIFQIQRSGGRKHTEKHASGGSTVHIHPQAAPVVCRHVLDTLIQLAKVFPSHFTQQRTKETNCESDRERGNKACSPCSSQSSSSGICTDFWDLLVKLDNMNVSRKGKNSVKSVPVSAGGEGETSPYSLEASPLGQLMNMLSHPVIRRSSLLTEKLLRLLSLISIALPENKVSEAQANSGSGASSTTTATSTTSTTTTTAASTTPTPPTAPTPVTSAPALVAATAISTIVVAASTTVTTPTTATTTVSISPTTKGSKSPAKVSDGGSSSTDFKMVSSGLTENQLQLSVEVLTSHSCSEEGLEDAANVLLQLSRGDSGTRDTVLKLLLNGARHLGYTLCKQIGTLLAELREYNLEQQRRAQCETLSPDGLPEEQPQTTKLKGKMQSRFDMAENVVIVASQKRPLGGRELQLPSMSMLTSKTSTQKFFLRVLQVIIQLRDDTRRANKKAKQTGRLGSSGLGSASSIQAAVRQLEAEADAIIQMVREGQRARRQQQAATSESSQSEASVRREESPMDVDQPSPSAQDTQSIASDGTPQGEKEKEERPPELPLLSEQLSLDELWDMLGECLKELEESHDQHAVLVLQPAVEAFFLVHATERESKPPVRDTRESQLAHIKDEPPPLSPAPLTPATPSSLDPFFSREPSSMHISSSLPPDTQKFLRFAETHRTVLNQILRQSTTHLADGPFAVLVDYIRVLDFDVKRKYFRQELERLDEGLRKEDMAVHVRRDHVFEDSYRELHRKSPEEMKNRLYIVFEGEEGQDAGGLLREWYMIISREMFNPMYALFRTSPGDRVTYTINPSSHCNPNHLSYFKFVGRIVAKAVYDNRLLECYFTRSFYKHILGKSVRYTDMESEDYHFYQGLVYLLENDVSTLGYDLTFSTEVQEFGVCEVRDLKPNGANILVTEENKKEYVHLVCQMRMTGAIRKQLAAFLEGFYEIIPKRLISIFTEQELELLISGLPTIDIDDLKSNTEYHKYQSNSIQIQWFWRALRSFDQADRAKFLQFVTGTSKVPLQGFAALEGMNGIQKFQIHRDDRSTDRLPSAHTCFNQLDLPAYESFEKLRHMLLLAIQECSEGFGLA

target: MCL1^TurboID (full-length MCL1 fused to two NLS and a C-terminal TurboID) (UniProt Q07820); assay: proximity labelling; TurboID proximity biotinylation in live transfected HCT116 and HeLa cells: MCL1^TurboID (two NLS) compared with an identical GFP^TurboID construct; 67 uM biotin, 15-20 min, 37°C; RIPA lysis, streptavidin magnetic beads, on-bead trypsin digest, LC-MS/MS; SAINT, hits at SP > 0.8; technical triplicate

binding, binds:
transportin-1 (TNPO1) (from UniProt Q92973 1-898)
sequestosome-1 (SQSTM1) (from UniProt Q13501 1-440)
E3 ligase Mule aka HUWE1 (from UniProt Q7Z6Z7 1-4374) (enzyme)
